According to PMC6118090:
Results are given in words; binding and its absence hold for the method and conditions named. In cells and extracts the contact can be indirect. Binding can be weak; no strength is given.

Target: T1, Receptor interaction protein 3 (RIP3) (rat (endogenous in NRK-52E)) (UniProt Q9Z2P5)
T1 sequence: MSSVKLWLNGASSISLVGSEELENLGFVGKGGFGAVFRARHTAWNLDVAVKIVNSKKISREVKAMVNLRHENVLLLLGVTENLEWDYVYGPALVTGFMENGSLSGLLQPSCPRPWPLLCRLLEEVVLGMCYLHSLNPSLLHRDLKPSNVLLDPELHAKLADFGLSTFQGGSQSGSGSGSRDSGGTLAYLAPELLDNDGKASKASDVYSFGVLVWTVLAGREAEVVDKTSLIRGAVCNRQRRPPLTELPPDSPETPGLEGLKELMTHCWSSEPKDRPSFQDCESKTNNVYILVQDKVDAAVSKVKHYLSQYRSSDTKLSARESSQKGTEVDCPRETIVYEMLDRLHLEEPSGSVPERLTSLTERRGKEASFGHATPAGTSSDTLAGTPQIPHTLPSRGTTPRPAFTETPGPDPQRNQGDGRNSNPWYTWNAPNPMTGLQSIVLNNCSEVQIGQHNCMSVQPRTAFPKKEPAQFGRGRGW
Experiment: co-IP; whole cell lysates of NRK-52E cells after 6 hr of hypoxia and 1, 12 or 24 hr of reoxygenation; 500 µg protein extract with 1 µg IP antibody, protein G Sepharose, 4 °C overnight, four washes with cell lysis buffer; Western blot

binding: binds
Substance: Receptor-interacting kinase 1 (RIP1) (rat (endogenous in NRK-52E))
